# According to PubChem BioAssay (Tox21):
# Protein sequences, listed by entry. Tags and fused reporters are not part of them.
# UniProt P14416, whole entry, looked up: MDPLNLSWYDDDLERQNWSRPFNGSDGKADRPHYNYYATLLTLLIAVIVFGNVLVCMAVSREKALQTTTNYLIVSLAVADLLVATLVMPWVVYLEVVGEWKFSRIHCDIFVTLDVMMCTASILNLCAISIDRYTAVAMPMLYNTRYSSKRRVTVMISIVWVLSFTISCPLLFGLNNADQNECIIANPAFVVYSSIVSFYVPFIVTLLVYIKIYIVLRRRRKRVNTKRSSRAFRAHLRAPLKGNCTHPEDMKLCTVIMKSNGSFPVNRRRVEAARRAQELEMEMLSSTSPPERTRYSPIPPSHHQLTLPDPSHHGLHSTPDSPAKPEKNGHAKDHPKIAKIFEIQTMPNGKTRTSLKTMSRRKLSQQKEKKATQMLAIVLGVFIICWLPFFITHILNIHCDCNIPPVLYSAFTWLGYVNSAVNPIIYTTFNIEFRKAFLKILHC
# Values joined by “and” are separate entries in the source; they are usually repeats but may differ in a detail not shown here. Equal values may be shown once. The inconclusive results got no clear call from the source; some entries with a clear call stand among them for comparison. For some assays here: Where the call is inconclusive, the potency comes from a doubtful curve fit. Active and inactive are the calls of the source. Unless noted, calls come from the whole dose curve.
# Experiments:
# [1] = target: D(2) dopamine receptor (Homo sapiens) (UniProt P14416); experiment: Dopamine D2 receptor (DRD2) small molecule agonists, cell-based qHTS assay (AID 1963594); conditions: HEK293-DRD2 cAMP HTRF, agonist mode, 30 min; activation: at 92.4 µM (top of the series) unless noted; note: nearly all actives have a fitted effect of over 35% in size; note: potency is the fitted concentration of half-maximal effect
# Procedure, shortened: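 HEK293 cells stably expressing DRD2 were cultured 24 h at 37 C, then given Ro20-1724 (0.1 mM final) and compounds for 10 min at room temperature. NKH477 (200nM) was then added for 30 min. cAMP was read by HTRF.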
# [2] = target: D(2) dopamine receptor (Homo sapiens) (UniProt P14416); experiment: Dopamine D2 receptor (DRD2) small molecule antagonists, cell-based qHTS assay (AID 1963595; active = well fitted inhibition curve with a large enough effect in the signal ratio in the repeat runs, with a control signal flat; inconclusive = weak or mixed curves, or effect the other way; the % refers to the signal ratio); conditions: HEK293-DRD2 cAMP HTRF antagonist mode; activity change, negative = inhibition: at 92.4 µM (top of the series) unless noted
# Procedure, shortened: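 Cells were plated and grown for 24 h at 37 °C. Ro20-1724 (0.1 mM final) went in first, then compound for 10 min. NKH477 (200 nM) with quinpirole (12 nM) followed for 30 min at RT, then HTRF detection reagents for 1 h.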
# [3] = target: Beta-2 adrenergic receptor (Homo sapiens) (UniProt P07550); experiment: Adrenergic beta2 receptor (ADRB2) small molecule agonists, cell-based qHTS assay (AID 1963593); conditions: CHO-ADRB2 cells, cAMP HTRF, 30 min; note: potency is the fitted concentration of half-maximal effect;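 for activation: CHO cells stably overexpressing human ADRB2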
# Procedure, shortened: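 CHO cells stably over-expressing ADRB2 were plated overnight at 37C, then dosed with compounds plus a stimulation mix containing 100uM IBMX and 25uM Ro-20-1724 for 0.5hr at room temperature. cAMP was measured by HTRF competition, 1hr.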
# [4] = activation: at 92.4 µM (top of the series) unless noted
# % is set by controls: 0 for no effect and ±100 for the full control effect.
smiles,measurement,setting,value
N#Cc1ccncc1,activation,[1],inconclusive: -4.76%
CN(N=O)C(N)=O,"activity change, negative = inhibition",[2],inconclusive: 0.47%
COc1ccccc1N,activation,[1],inconclusive: 1.42%
BrCBr,Potency,[3]; [4],"inconclusive: 0.063 µM [inhibitor, single point]"
same,Potency,[1],"inconclusive: 3.7 µM [falling, full curve, poor fit]"
Cc1ccc2cc(C)ccc2c1,Potency,[3]; [4],inactive
same,Potency,[1],"inconclusive: 16 µM [falling, partial curve, poor fit]"
Nc1ccc(Cl)c(Cl)c1,activation,[3]; [4],inconclusive: 33.1%
same,activation,[3]; at 92.4 µM (top of the series),inactive: 24.9%
same,Potency,[1],inactive
O=S(=O)(c1ccccc1)c1ccccc1,Potency,[1],"inconclusive: 77 µM [rising, single point]"
C/C=C/CC#N,activation,[3]; [4],inconclusive: -23.6%
same,Potency,[2],inactive
C=CCc1ccc(OC)cc1,Potency,[3]; [4],"inconclusive: 68.6 µM [inhibitor, single point]"
same,activation,[3]; [4],inconclusive: 23.8%
same,Potency,[1],inactive
O=C(O)c1c(Cl)ccc2cc(Cl)cnc12,Potency,[3]; [4],inactive
same,activation,[1],inconclusive: -10.5%
Cc1ccccc1O,Potency,[3]; [4],"inconclusive: 27.2 µM [inhibitor, single point] and inactive"
same,activation,[1],inconclusive: -4.31%
CCCC(C)(COC(N)=O)COC(=O)NC(C)C (stereo unspecified),Potency,[3]; [4],inactive
same,Potency,[1],"inconclusive: 63.7 µM [falling, single point]"
CC(Cl)CCl (stereo unspecified),Potency,[1],inactive
[O-][Cl+]O,Potency,[3]; [4],"inconclusive: 2.73 µM [inhibitor, single point]"
same,Potency,[1],inactive
O=C(O)C(F)(F)C(F)(F)C(F)(F)C(F)(F)C(F)(F)C(F)(F)C(F)(F)C(F)(F)C(F)(F)F,activation,[3]; [4],inconclusive: -1.06%
same,activation,[1],inconclusive: 9.62%
O=C/C=C/c1ccco1,activation,[3]; [4],inconclusive: -1.39%
same,"activity change, negative = inhibition",[2],inconclusive: -4.64%
C1CC2OC2CC1C1CO1 (stereo unspecified),activation,[3]; [4],inconclusive: 16.9%
same,Potency,[1],"inconclusive: 67.3 µM [falling, partial curve, poor fit]"
CCCSC(=O)Cl,Potency,[3]; [4],inactive
same,Potency,[1],inactive
same,Potency,[2],inactive
CCCCCCCCCBr,Potency,[3]; [4],inactive
same,Potency,[1],inactive
CCCCC(CC)COC(=O)c1ccc(C(=O)OCC(CC)CCCC)c(C(=O)OCC(CC)CCCC)c1 (stereo unspecified),activation,[3]; [4],inconclusive: 1.88% and inconclusive: -37.5%
same,Potency,[1],inactive
C#CCOC(=O)/C=C(C)/C=C/CC(C)CCCC(C)C (stereo unspecified),Potency,[1],inactive
CCCCC1C(=O)NC(=O)N(C2CCCCC2)C1=O (stereo unspecified),Potency,[1],inactive
COc1cc(C[C@@H](C)N)c(OC)cc1Br,Potency,[1],active: 3.96 µM

# Given with bars between the fields: part of the list above
smiles | measurement | setting | value
Nc1ccc(Cl)c(Cl)c1 | activation | [3]; [4] | inconclusive: 33.1%
C=CCc1ccc(OC)cc1 | Potency | [3]; [4] | inconclusive: 68.6 µM [inhibitor, single point]
O=C(O)c1c(Cl)ccc2cc(Cl)cnc12 | Potency | [3]; [4] | inactive
Cc1ccccc1O | Potency | [3]; [4] | inconclusive: 27.2 µM [inhibitor, single point] and inactive
same | activation | [1] | inconclusive: -4.31%
O=C(O)C(F)(F)C(F)(F)C(F)(F)C(F)(F)C(F)(F)C(F)(F)C(F)(F)C(F)(F)C(F)(F)F | activation | [1] | inconclusive: 9.62%
O=C/C=C/c1ccco1 | activity change, negative = inhibition | [2] | inconclusive: -4.64%
C1CC2OC2CC1C1CO1 (stereo unspecified) | Potency | [1] | inconclusive: 67.3 µM [falling, partial curve, poor fit]
CCCCCCCCCBr | Potency | [1] | inactive
C#CCOC(=O)/C=C(C)/C=C/CC(C)CCCC(C)C (stereo unspecified) | Potency | [1] | inactive
COc1cc(C[C@@H](C)N)c(OC)cc1Br | Potency | [1] | active: 3.96 µM
